Data from doi:10.1101/2020.05.09.085852 (bioRxiv, 2020).
No constants are given. Whether binding was seen depends on the method and setting. For part of these data: Binding seen in cells or lysates may run through a third protein. Some binding calls cover weakened binding; strength is not graded here. For part of these data: Tags and fused reporters may be left off the sequences shown.

Columns and labels:
[1] = target: T1, YueB (BACTH fusion) (B. subtilis 168) (UniProt O32101); assay: two-hybrid
T1 sequence: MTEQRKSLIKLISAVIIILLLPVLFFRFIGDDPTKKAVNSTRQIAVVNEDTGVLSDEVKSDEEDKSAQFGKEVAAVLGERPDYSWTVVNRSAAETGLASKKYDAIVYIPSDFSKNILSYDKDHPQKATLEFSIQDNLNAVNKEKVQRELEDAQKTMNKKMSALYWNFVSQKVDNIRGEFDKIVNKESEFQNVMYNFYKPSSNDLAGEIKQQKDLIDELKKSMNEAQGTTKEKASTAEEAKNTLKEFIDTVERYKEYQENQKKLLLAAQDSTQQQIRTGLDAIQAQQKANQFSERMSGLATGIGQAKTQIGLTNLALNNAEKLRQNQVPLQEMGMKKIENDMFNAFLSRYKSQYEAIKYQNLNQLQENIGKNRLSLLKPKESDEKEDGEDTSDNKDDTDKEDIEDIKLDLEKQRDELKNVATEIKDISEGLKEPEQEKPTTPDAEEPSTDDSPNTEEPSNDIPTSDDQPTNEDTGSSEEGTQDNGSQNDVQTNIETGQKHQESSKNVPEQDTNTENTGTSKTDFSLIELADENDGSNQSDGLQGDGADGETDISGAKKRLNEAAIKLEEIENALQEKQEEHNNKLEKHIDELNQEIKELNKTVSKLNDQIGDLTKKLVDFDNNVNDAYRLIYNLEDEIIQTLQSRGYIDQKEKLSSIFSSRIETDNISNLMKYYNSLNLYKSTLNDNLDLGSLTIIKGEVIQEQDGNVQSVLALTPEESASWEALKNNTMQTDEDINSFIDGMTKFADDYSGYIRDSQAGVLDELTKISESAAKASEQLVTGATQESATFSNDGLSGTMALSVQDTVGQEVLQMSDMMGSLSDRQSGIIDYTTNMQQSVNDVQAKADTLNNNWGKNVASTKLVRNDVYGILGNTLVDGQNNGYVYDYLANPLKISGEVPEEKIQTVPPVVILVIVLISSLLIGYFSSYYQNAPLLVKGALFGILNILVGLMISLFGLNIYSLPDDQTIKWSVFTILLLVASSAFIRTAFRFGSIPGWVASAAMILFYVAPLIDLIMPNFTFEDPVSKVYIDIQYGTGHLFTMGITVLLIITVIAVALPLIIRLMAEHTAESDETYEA

[2] = target: T2, YukC (BACTH fusion) (B. subtilis 168) (UniProt P71070); assay: two-hybrid
T2 sequence: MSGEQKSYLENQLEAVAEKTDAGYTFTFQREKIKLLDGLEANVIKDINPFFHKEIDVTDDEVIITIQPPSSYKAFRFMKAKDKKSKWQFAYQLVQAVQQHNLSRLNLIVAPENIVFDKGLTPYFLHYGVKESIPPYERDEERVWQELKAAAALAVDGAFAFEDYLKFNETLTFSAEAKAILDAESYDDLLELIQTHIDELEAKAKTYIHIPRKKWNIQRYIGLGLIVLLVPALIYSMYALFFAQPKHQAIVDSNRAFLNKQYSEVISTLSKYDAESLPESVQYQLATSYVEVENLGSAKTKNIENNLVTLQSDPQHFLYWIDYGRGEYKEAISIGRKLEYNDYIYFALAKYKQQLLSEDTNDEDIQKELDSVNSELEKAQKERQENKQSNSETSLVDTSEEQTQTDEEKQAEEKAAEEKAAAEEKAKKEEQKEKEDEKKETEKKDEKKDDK

[3] = target: YukB (BACTH fusion) (B. subtilis 168) (UniProt C0SPA7); assay: two-hybrid
[4] = target: YueC (BACTH fusion) (B. subtilis 168) (UniProt O32100); assay: two-hybrid
[5] = target: YxiD N-terminal region (YxiDN), BACTH fusion (B. subtilis 168) (UniProt P42296); assay: two-hybrid
[6] = target: T3, YukE (BACTH fusion) (B. subtilis 168) (UniProt C0SP85); assay: two-hybrid
T3 sequence: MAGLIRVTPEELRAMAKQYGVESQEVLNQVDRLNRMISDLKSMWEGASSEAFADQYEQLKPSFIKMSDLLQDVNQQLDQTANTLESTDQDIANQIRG

[7] = target: T4, YukC.strep (B. subtilis 168) (UniProt P71070); assay: pull-down
T4 sequence: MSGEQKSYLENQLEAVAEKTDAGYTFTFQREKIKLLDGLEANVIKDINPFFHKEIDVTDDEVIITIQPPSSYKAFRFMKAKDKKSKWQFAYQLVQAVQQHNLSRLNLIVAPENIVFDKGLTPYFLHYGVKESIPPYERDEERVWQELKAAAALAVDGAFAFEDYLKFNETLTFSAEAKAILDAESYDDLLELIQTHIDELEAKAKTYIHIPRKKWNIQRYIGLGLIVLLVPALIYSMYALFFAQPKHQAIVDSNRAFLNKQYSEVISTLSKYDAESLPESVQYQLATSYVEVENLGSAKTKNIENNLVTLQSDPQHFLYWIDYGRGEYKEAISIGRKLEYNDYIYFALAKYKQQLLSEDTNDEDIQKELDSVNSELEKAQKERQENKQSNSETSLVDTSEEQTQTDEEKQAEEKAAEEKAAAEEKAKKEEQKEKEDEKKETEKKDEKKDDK

[8] = target: T5, YueB.strep (B. subtilis 168) (UniProt O32101); assay: pull-down
T5 sequence: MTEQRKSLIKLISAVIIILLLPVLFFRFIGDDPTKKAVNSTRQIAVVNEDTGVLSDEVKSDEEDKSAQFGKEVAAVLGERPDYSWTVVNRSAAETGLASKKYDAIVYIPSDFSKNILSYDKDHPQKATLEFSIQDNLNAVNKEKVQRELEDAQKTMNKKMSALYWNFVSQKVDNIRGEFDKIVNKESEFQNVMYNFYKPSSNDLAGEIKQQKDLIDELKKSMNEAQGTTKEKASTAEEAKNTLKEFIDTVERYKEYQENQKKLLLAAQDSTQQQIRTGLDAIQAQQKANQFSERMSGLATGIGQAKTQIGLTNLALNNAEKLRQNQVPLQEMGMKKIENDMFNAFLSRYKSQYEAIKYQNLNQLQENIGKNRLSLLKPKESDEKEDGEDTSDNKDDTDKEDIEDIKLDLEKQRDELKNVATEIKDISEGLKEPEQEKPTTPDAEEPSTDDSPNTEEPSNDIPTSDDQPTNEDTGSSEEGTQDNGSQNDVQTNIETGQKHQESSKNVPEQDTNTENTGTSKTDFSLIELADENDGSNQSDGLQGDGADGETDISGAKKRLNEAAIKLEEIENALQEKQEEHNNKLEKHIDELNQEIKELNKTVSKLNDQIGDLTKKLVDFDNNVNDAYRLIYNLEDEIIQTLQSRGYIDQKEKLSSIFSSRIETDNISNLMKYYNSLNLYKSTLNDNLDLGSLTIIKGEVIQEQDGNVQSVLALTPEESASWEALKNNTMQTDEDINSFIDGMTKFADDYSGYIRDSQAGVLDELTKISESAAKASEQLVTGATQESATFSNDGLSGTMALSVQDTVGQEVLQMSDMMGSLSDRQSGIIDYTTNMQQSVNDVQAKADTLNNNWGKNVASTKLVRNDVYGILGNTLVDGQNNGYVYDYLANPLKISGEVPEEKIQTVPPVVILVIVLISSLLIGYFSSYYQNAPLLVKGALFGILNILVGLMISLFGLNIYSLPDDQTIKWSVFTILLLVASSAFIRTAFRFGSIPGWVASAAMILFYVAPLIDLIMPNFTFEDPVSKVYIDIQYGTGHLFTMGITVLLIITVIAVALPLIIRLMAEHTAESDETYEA

[9] = target: T6, YukCΔ217.strep (pseudokinase domain) (B. subtilis 168) (UniProt P71070); assay: pull-down
T6 sequence: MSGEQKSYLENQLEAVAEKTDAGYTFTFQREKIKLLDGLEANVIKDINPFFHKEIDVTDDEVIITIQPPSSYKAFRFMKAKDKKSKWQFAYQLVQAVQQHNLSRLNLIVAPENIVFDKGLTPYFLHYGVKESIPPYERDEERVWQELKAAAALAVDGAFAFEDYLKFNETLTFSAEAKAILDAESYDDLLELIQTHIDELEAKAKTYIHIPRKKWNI

YukB (BACTH fusion) (from UniProt C0SPA7 1-1495)
binding [1]: binds | binding [2]: binds | binding [3]: binds

YueC (BACTH fusion) (from UniProt O32100 1-151)
binding [2]: binds | binding [4]: no binding

YxiD N-terminal region (YxiDN), BACTH fusion (from UniProt P42296 1-97) (domain or fragment)
binding [2]: binds | binding [5]: binds | binding [6]: binds

YukB N-terminal region (residues 1-256), BACTH fusion (from UniProt C0SPA7 1-256) (domain or fragment)
binding [2]: binds

B1: YueB (BACTH fusion) (protein, UniProt O32101 1-1076)
chain: MTEQRKSLIKLISAVIIILLLPVLFFRFIGDDPTKKAVNSTRQIAVVNEDTGVLSDEVKSDEEDKSAQFGKEVAAVLGERPDYSWTVVNRSAAETGLASKKYDAIVYIPSDFSKNILSYDKDHPQKATLEFSIQDNLNAVNKEKVQRELEDAQKTMNKKMSALYWNFVSQKVDNIRGEFDKIVNKESEFQNVMYNFYKPSSNDLAGEIKQQKDLIDELKKSMNEAQGTTKEKASTAEEAKNTLKEFIDTVERYKEYQENQKKLLLAAQDSTQQQIRTGLDAIQAQQKANQFSERMSGLATGIGQAKTQIGLTNLALNNAEKLRQNQVPLQEMGMKKIENDMFNAFLSRYKSQYEAIKYQNLNQLQENIGKNRLSLLKPKESDEKEDGEDTSDNKDDTDKEDIEDIKLDLEKQRDELKNVATEIKDISEGLKEPEQEKPTTPDAEEPSTDDSPNTEEPSNDIPTSDDQPTNEDTGSSEEGTQDNGSQNDVQTNIETGQKHQESSKNVPEQDTNTENTGTSKTDFSLIELADENDGSNQSDGLQGDGADGETDISGAKKRLNEAAIKLEEIENALQEKQEEHNNKLEKHIDELNQEIKELNKTVSKLNDQIGDLTKKLVDFDNNVNDAYRLIYNLEDEIIQTLQSRGYIDQKEKLSSIFSSRIETDNISNLMKYYNSLNLYKSTLNDNLDLGSLTIIKGEVIQEQDGNVQSVLALTPEESASWEALKNNTMQTDEDINSFIDGMTKFADDYSGYIRDSQAGVLDELTKISESAAKASEQLVTGATQESATFSNDGLSGTMALSVQDTVGQEVLQMSDMMGSLSDRQSGIIDYTTNMQQSVNDVQAKADTLNNNWGKNVASTKLVRNDVYGILGNTLVDGQNNGYVYDYLANPLKISGEVPEEKIQTVPPVVILVIVLISSLLIGYFSSYYQNAPLLVKGALFGILNILVGLMISLFGLNIYSLPDDQTIKWSVFTILLLVASSAFIRTAFRFGSIPGWVASAAMILFYVAPLIDLIMPNFTFEDPVSKVYIDIQYGTGHLFTMGITVLLIITVIAVALPLIIRLMAEHTAESDETYEA
binding [1]: binds | binding [2]: binds

B2: YukE.his (protein, UniProt C0SP85 1-97)
chain: MAGLIRVTPEELRAMAKQYGVESQEVLNQVDRLNRMISDLKSMWEGASSEAFADQYEQLKPSFIKMSDLLQDVNQQLDQTANTLESTDQDIANQIRG
binding [7]: binds

B3: YukE (BACTH fusion) (protein, UniProt C0SP85 1-97)
chain: MAGLIRVTPEELRAMAKQYGVESQEVLNQVDRLNRMISDLKSMWEGASSEAFADQYEQLKPSFIKMSDLLQDVNQQLDQTANTLESTDQDIANQIRG
binding [2]: binds | binding [6]: binds

B4: YukC (BACTH fusion) (protein, UniProt P71070 1-451)
chain: MSGEQKSYLENQLEAVAEKTDAGYTFTFQREKIKLLDGLEANVIKDINPFFHKEIDVTDDEVIITIQPPSSYKAFRFMKAKDKKSKWQFAYQLVQAVQQHNLSRLNLIVAPENIVFDKGLTPYFLHYGVKESIPPYERDEERVWQELKAAAALAVDGAFAFEDYLKFNETLTFSAEAKAILDAESYDDLLELIQTHIDELEAKAKTYIHIPRKKWNIQRYIGLGLIVLLVPALIYSMYALFFAQPKHQAIVDSNRAFLNKQYSEVISTLSKYDAESLPESVQYQLATSYVEVENLGSAKTKNIENNLVTLQSDPQHFLYWIDYGRGEYKEAISIGRKLEYNDYIYFALAKYKQQLLSEDTNDEDIQKELDSVNSELEKAQKERQENKQSNSETSLVDTSEEQTQTDEEKQAEEKAAEEKAAAEEKAKKEEQKEKEDEKKETEKKDEKKDDK
binding [2]: binds

B5: YukC.his (protein, UniProt P71070 1-451)
chain: MSGEQKSYLENQLEAVAEKTDAGYTFTFQREKIKLLDGLEANVIKDINPFFHKEIDVTDDEVIITIQPPSSYKAFRFMKAKDKKSKWQFAYQLVQAVQQHNLSRLNLIVAPENIVFDKGLTPYFLHYGVKESIPPYERDEERVWQELKAAAALAVDGAFAFEDYLKFNETLTFSAEAKAILDAESYDDLLELIQTHIDELEAKAKTYIHIPRKKWNIQRYIGLGLIVLLVPALIYSMYALFFAQPKHQAIVDSNRAFLNKQYSEVISTLSKYDAESLPESVQYQLATSYVEVENLGSAKTKNIENNLVTLQSDPQHFLYWIDYGRGEYKEAISIGRKLEYNDYIYFALAKYKQQLLSEDTNDEDIQKELDSVNSELEKAQKERQENKQSNSETSLVDTSEEQTQTDEEKQAEEKAAEEKAAAEEKAKKEEQKEKEDEKKETEKKDEKKDDK
binding [8]: binds

B6: YukBΔ256.his (FHA domains) (domain or fragment, UniProt C0SPA7 1-256)
chain: MSLLWVFYQNNVQKLNLSNLPSSHPVTIGPDVKDSVTISTIPFNSGVISLKRKESGGQYEVFLGNDCLGTIETDISFTLQTDQQDIRLILTGSEPEKSVYFTGNRDEIVCSSEKTNADIYLNPQDFAFAEQSTFSLLRAGGSWSVRPESGTIFLNGEKINANTPLKPGDEIFWNFTQMRVTEQDLLEIVHYAQFETALTETVKPSTEMQKKYPQYRRTPRMVYDLPDDRVSFSFPSQESDQTNRGLWLVILPPLVM
binding [9]: binds | binding [7]: binds
